Assay [1] deals with T1, podocin (rat (endogenous in rat glomeruli)) (UniProt Q8K4G9).
T1 sequence: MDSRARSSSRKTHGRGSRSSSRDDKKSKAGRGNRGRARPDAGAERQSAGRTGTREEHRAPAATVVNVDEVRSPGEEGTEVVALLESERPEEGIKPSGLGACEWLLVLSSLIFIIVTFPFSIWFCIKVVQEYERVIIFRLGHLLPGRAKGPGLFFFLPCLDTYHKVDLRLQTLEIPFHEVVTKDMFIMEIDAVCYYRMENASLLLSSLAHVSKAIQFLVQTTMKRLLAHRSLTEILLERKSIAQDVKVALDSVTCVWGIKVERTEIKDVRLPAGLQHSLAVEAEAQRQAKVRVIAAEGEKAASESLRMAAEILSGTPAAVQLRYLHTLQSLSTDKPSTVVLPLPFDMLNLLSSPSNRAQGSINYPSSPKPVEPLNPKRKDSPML
The assay is described as follows: co-IP; immunoprecipitation with anti-podocin antibody (control: normal rabbit IgG) from S1 (0.1% TritonX-100) and S2 (RIPA buffer) fractions of rat glomeruli incubated 30 min with or without 20 µM myr-ζPS peptide; immunoblotting.

Sequences of proteins named here, by UniProt entry; tags and fusion partners are left off.
UniProt Q9Z340: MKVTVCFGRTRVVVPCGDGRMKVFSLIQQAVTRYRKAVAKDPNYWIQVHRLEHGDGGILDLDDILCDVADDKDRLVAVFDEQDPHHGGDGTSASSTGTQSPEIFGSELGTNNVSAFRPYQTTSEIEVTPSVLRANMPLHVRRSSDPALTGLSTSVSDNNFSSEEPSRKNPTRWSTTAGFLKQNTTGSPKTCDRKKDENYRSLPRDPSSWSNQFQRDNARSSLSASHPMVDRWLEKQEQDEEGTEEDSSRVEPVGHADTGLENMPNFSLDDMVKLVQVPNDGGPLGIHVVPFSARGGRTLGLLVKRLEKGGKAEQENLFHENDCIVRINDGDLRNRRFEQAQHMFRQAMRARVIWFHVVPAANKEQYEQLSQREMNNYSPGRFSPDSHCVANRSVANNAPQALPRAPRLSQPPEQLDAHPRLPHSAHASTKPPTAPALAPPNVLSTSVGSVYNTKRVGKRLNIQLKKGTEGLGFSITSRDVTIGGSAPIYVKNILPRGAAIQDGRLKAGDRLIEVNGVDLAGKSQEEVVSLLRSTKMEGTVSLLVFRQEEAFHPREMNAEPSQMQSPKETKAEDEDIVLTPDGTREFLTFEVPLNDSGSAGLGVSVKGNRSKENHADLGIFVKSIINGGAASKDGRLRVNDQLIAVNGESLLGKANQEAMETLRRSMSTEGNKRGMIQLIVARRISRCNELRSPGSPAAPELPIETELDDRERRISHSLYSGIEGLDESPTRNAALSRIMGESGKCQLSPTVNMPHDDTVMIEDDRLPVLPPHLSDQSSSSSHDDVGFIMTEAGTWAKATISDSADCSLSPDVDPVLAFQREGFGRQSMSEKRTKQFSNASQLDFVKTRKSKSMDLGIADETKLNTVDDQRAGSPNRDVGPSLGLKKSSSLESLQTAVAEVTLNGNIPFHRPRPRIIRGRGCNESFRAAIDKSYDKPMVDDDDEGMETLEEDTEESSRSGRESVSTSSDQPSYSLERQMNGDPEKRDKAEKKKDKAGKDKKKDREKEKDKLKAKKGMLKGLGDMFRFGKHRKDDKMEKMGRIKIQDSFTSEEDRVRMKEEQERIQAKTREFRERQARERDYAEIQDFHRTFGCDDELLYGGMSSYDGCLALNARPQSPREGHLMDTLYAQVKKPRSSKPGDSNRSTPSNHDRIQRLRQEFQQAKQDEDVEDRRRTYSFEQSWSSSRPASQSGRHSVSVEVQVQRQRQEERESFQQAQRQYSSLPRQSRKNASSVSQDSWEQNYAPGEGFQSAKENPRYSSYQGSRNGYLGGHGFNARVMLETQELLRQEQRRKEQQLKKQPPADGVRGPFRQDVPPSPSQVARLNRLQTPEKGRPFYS

For assay [2], the target named is PAR3 (rat (endogenous in rat glomeruli)) (UniProt Q9Z340). The assay is described as follows: co-IP; immunoprecipitation of endogenous PAR3 with two independent anti-PAR3 antibodies (UBI, C2-2AP) from rat glomerular fractions Gl-S1 (IP buffer, 0.1% TritonX-100) and Gl-S2 (1% TritonX-100, 20 mM CHAPS); immunoblotting.
For assay [3], the target named is T2, podocin (rat (endogenous in rat glomeruli)), Q8K4G9.
T2 chain: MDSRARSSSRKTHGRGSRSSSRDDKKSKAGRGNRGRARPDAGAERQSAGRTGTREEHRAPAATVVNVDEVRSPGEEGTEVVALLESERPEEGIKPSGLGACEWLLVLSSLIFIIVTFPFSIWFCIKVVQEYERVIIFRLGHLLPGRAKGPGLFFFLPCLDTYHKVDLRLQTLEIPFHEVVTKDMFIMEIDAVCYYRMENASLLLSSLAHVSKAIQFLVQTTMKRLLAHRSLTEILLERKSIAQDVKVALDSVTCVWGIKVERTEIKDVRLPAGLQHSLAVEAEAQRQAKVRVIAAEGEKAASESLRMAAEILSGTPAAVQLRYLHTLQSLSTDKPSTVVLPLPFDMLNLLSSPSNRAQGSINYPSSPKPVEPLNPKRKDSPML
The assay is described as follows: co-IP; immunoprecipitation with anti-podocin antibody (control: normal rabbit IgG) from S1 (0.1% TritonX-100) and S2 (RIPA buffer) fractions of rat glomeruli incubated 30 min with or without 20 µM myr-ζPS peptide; immunoblotting. As to conditions: remark: other sources report otherwise.

For assay [4], the target named is T1, podocin (rat (endogenous in rat glomeruli)). The assay is described as above. This is another data set of the same source.

Read-outs that look alike come from different tables or passages of the source. Results are given in words; binding and its absence hold for the method and conditions named. In cells and extracts the contact can be indirect. Some binding calls cover weakened binding; strength is not graded here.

As to PAR3 (from UniProt Q9Z340 1-1337), the binding entry in assay [1] is recorded as “binds”.

B1: podocin (protein, UniProt Q8K4G9 1-383)
chain: MDSRARSSSRKTHGRGSRSSSRDDKKSKAGRGNRGRARPDAGAERQSAGRTGTREEHRAPAATVVNVDEVRSPGEEGTEVVALLESERPEEGIKPSGLGACEWLLVLSSLIFIIVTFPFSIWFCIKVVQEYERVIIFRLGHLLPGRAKGPGLFFFLPCLDTYHKVDLRLQTLEIPFHEVVTKDMFIMEIDAVCYYRMENASLLLSSLAHVSKAIQFLVQTTMKRLLAHRSLTEILLERKSIAQDVKVALDSVTCVWGIKVERTEIKDVRLPAGLQHSLAVEAEAQRQAKVRVIAAEGEKAASESLRMAAEILSGTPAAVQLRYLHTLQSLSTDKPSTVVLPLPFDMLNLLSSPSNRAQGSINYPSSPKPVEPLNPKRKDSPML
As for B1, the binding result in assay [2] was “binds”.

B2: nephrin (protein, UniProt Q9R044 37-1252)
chain: ESPVPTSAPRGFWALSENLTAVEGTTVKLWCGVRAPGSVVQWAKDGLLLGPNPKMPGFPRYSLEGDRAKGEFHLLIEACDLSDDAEYECQVGRSELGPELVSPKVILSILVSPKVLLLTPEAGSTVTWVAGQEYVVTCVSGDAKPAPDITFIQSGRTILDVSSNVNEGSEEKLCITEAEARVIPQSSDNGQLLVCEGSNPALDTPIKASFTMNILFPPGPPVIDWPGLNEGHVRAGENLELPCTARGGNPPATLQWLKNGKPVSTAWGTEHAQAVAHSVLVMTVRPEDHGARLSCQSYNSVSAGTQERSITLQVTFPPSAITILGSVSQSENKNVTLCCLTKSSRPRVLLRWWLGGRQLLPTDETVMDGLHGGHISMSNLTFLVRREDNGLPLTCEAFSDAFSKETFKKSLTLNVKYPAQKLWIEGPPEGQYIRTGTRVRLVCLAIGGNPDPSLIWFKDSRPVSEPRQPQEPRRVQLGSVEKSGSTFSRELVLIIGPPDNRAKFSCKAGQLSASTQLVVQFPPTNLTILANSSALRPGDALNLTCVSISSNPPVNLSWDKEGERLEDVAAKPQSAPFKGSAASRSVFLRVSSRDHGQRVTCRAHSEALRETVSSFYRFNVLYPPEFLGEQVRAVTVVEQGQVLLPVSVSANPAPEAFNWTFRGYRLSPAGGPRHRILSGGALQLWNVTRADDGFYQLHCQNSEGTAEALLKLDVHYAPTIRALRDPTEVNVGGSVDIVCTVDANPILPEMFSWERLGEEEEDLNLDDMEKVSKGSTGRLRIRQAKLSQAGAYQCIVDNGVAPAARGLVRLVVRFAPQVDQPTPLTKVAAAGDSTSSATLHCRARGVPNIDFTWTKNGVPLDLQDPRYTEHRYHQGVVHSSLLTIANVSAAQDYALFKCTATNALGSDHTNIQLVSISRPDPPLGLKVVSISPHSVGLEWKPGFDGGLPQRFQIRYEALETPGFLHVDVLPTQATTFTLTGLKPSTRYRIWLLASNALGDSGLTDKGIQVSVTTPGPDQAPEDTDHQLPTELPPGPPRLPLLPVLFAVGGLLLLSNASCVGGLLWRRRLRRLAEEISEKTEAGSEDRIRNEYEESQWTGDRDTRSSTVSTAEVDPNYYSMRDFSPQLPPTLEEVLYHQGAEGEDMAFPGHLHDEVERAYGPPGAWGPLYDEVRMDPYDLRWPEVQCEDPRGIYDQVAADMDAVEASSLPFELRGHLV
With B2, in assay [2], the binding result is recorded as “binds”.

B3: nephrin, Q9R044 37-1252 (protein)
chain: ESPVPTSAPRGFWALSENLTAVEGTTVKLWCGVRAPGSVVQWAKDGLLLGPNPKMPGFPRYSLEGDRAKGEFHLLIEACDLSDDAEYECQVGRSELGPELVSPKVILSILVSPKVLLLTPEAGSTVTWVAGQEYVVTCVSGDAKPAPDITFIQSGRTILDVSSNVNEGSEEKLCITEAEARVIPQSSDNGQLLVCEGSNPALDTPIKASFTMNILFPPGPPVIDWPGLNEGHVRAGENLELPCTARGGNPPATLQWLKNGKPVSTAWGTEHAQAVAHSVLVMTVRPEDHGARLSCQSYNSVSAGTQERSITLQVTFPPSAITILGSVSQSENKNVTLCCLTKSSRPRVLLRWWLGGRQLLPTDETVMDGLHGGHISMSNLTFLVRREDNGLPLTCEAFSDAFSKETFKKSLTLNVKYPAQKLWIEGPPEGQYIRTGTRVRLVCLAIGGNPDPSLIWFKDSRPVSEPRQPQEPRRVQLGSVEKSGSTFSRELVLIIGPPDNRAKFSCKAGQLSASTQLVVQFPPTNLTILANSSALRPGDALNLTCVSISSNPPVNLSWDKEGERLEDVAAKPQSAPFKGSAASRSVFLRVSSRDHGQRVTCRAHSEALRETVSSFYRFNVLYPPEFLGEQVRAVTVVEQGQVLLPVSVSANPAPEAFNWTFRGYRLSPAGGPRHRILSGGALQLWNVTRADDGFYQLHCQNSEGTAEALLKLDVHYAPTIRALRDPTEVNVGGSVDIVCTVDANPILPEMFSWERLGEEEEDLNLDDMEKVSKGSTGRLRIRQAKLSQAGAYQCIVDNGVAPAARGLVRLVVRFAPQVDQPTPLTKVAAAGDSTSSATLHCRARGVPNIDFTWTKNGVPLDLQDPRYTEHRYHQGVVHSSLLTIANVSAAQDYALFKCTATNALGSDHTNIQLVSISRPDPPLGLKVVSISPHSVGLEWKPGFDGGLPQRFQIRYEALETPGFLHVDVLPTQATTFTLTGLKPSTRYRIWLLASNALGDSGLTDKGIQVSVTTPGPDQAPEDTDHQLPTELPPGPPRLPLLPVLFAVGGLLLLSNASCVGGLLWRRRLRRLAEEISEKTEAGSEDRIRNEYEESQWTGDRDTRSSTVSTAEVDPNYYSMRDFSPQLPPTLEEVLYHQGAEGEDMAFPGHLHDEVERAYGPPGAWGPLYDEVRMDPYDLRWPEVQCEDPRGIYDQVAADMDAVEASSLPFELRGHLV
Take B3: the binding entry in assay [3] is “binds”.

B4: aPKCλ (enzyme, UniProt F1M7Y5 1-596)
chain: MPTQRDSSTMSHTVACGGGGDHSHQVRVKAYYRGDIMITHFEPSISFEGLCSEVRDMCSFDNEQPFTMKWIDEEGDPCTVSSQLELEEAFRLYELNKDSELLIHVFPCVPERPGMPCPGEDKSIYRRGARRWRKLYCANGHTFQAKRFNRRAHCAICTDRIWGLGRQGYKCINCKLLVHKKCHKLVTIECGRHSLPPEPMMPMDQSSMHPDHTQTVIPYNPSSHESLDQVGEEKEAMNTRESGKASSSLGLQDFDLLRVIGRGSYAKVLLVRLKKTDRIYAMKVVKKELVNDDEDIDWVQTEKHVFEQASNHPFLVGLHSCFQTESRLFFVIEYVNGGDLMFHMQRQRKLPEEHARFYSAEISLALNYLHERGIIYRDLKLDNVLLDSEGHIKLTDYGMCKEGLRPGDTTSTFCGTPNYIAPEILRGEDYGFSVDWWALGVLMFEMMAGRSPFDIVGSSDNPDQNTEDYLFQVILEKQIRIPRSLSVKAASVLKSFLNKDPKERLGCHPQTGFADIQGHPFFRNVDWDMMEQKQVVPPFKPNISGEFGLDNFDSQFTNEPVQLTPDDDDIVRKIDQSEFEGFEYINPLLMSAEECV
Regarding B4, the binding result in assay [4] and in assay [2] was “binds” in each case.

The values above are taken from paper PMC2614475.
